PubChem BioAssay AID248 (DTP/NCI, 2004)
The list does not hold the whole screen: it is rich in T/C values a quarter to a half above the control, in often repeated tests (any T/C) and in doses without a T/C. Other doses and runs of a compound stand elsewhere. T/C is the treated group as % of the vehicle group. Some entries give survivors of the animals treated and no T/C: the source holds a T/C of zero for them, seemingly a mark for toxic or unscored doses. Some survivor counts are full or nearly so, which does not show that the dose was tolerated: the source hardly ever lists a survival T/C far under the control, and the zero likely stands for such cases as well. Survivors were counted at the toxicity check, usually on the fifth day, unless a day is given; later deaths do not show. Schedules are NCI's codes, taken here to give the interval after Q, in days (D) or hours (H), and the number of doses after X. Some entries were tested several times; the results are listed from low to high. For survival time, the PubChem record calls one and a half times the control and up active, and a quarter to a half above the control has no call in these data; cut-offs in other NCI protocols can differ. Signs of the kind (2×) give the number of equal values in this list. Some T/C values carry the count of animals alive at the toxicity check (mostly the fifth day); where none is given, no animal had died by that day.

System: L1210 leukemia ip in BDF1 mice, survival T/C
Experiment: NCI In Vivo Anticancer Drug Screen. Data for tumor model L1210 Leukemia (intraperitoneal) in B6D2F1 (BDF1) mice
Conditions: T/C endpoint: mean survival time, higher T/C = longer survival
[1] = dose: 200.0 mg/kg/injection, schedule: Q01DX009 (ip), vehicle: saline with Tween-80
[2] = dose: 400.0 mg/kg/injection, schedule: Q01DX009 (ip), vehicle: saline with Tween-80

Structure (SMILES): COC(=O)c1[nH]cnc1/N=N\N(CCF)CCF
- T/C (dose: 6.0 mg/kg/injection, schedule: Q01DX009 (ip), vehicle: carboxymethylcellulose (CMC)): 130 % of control [5 of 6 alive]
- T/C (dose: 8.4 mg/kg/injection, schedule: Q01DX009 (ip), vehicle: carboxymethylcellulose (CMC)): 133 % of control
- T/C (dose: 12.0 mg/kg/injection, schedule: Q01DX009 (ip), vehicle: carboxymethylcellulose (CMC)): 146 % of control
- T/C (dose: 18.0 mg/kg/injection, schedule: Q01DX001 (ip), vehicle: carboxymethylcellulose (CMC)): 125 % of control
- T/C (dose: 20.0 mg/kg/injection, schedule: Q01DX001 (ip), vehicle: carboxymethylcellulose (CMC)): 126 % of control
- T/C (dose: 24.0 mg/kg/injection, schedule: Q01DX009 (ip), vehicle: carboxymethylcellulose (CMC)): 145 % of control
- survivor count (dose: 27.0 mg/kg/injection, schedule: Q01DX009 (ip), vehicle: carboxymethylcellulose (CMC)): 6 of 6
- T/C (dose: 35.0 mg/kg/injection, schedule: Q01DX001 (ip), vehicle: carboxymethylcellulose (CMC), evaluated on day 30): 127 % of control
- T/C (dose: 35.0 mg/kg/injection, schedule: Q01DX001 (ip), vehicle: carboxymethylcellulose (CMC), run until all animals had died): 137 % of control
- T/C (dose: 36.0 mg/kg/injection, schedule: Q01DX001 (ip), vehicle: carboxymethylcellulose (CMC)): 137 % of control
- T/C (dose: 40.0 mg/kg/injection, schedule: Q01DX001 (ip), vehicle: carboxymethylcellulose (CMC)): 149 % of control
- survivor count (dose: 40.0 mg/kg/injection, schedule: Q01DX009 (ip), vehicle: carboxymethylcellulose (CMC)): 4 of 6
- survivor count (dose: 53.0 mg/kg/injection, schedule: Q01DX001 (ip), vehicle: carboxymethylcellulose (CMC)): 3 of 6
- survivor count (dose: 80.0 mg/kg/injection, schedule: Q01DX001 (ip), vehicle: carboxymethylcellulose (CMC)): 0 of 6 and 2 of 6
- survivor count (dose: 120.0 mg/kg/injection, schedule: Q01DX001 (ip), vehicle: carboxymethylcellulose (CMC)): 0 of 5 and 0 of 6

Structure (SMILES): N#CC1C2CCC(C2)C1CCCNCCCC1C2CCC(C2)C1C#N (stereo not drawn)
- survivor count (dose: 400.0 mg/kg/injection, schedule: Q04DX002 (ip), vehicle: saline): 3 of 3

Structure (SMILES): CCOC(=O)c1ccc(NC(=O)Nc2cc(OC)c(Cl)cc2OC)cc1
- T/C (dose: 100.0 mg/kg/injection, schedule: Q01DX009 (ip), vehicle: saline with Tween-80): 88 (2×), 91, 92 % of control
- survivor count (dose: 100.0 mg/kg/injection, schedule: Q04DX003 (ip), vehicle: saline with Tween-80): 6 of 6
- T/C [1]: 86, 87, 92 % of control
- survivor count [1]: 6 of 6
- survivor count (dose: 200.0 mg/kg/injection, schedule: Q04DX003 (ip), vehicle: saline with Tween-80): 6 of 6
- T/C [2]: 86, 87, 90 % of control
- survivor count [2]: 3 of 3
- survivor count (dose: 400.0 mg/kg/injection, schedule: Q04DX003 (ip), vehicle: saline with Tween-80): 6 of 6

Structure (SMILES): CS(=O)(=O)c1nc2[nH]c(=O)[nH]c(=O)c2cc1C#N
- survivor count (dose: 200.0 mg/kg/injection, schedule: Q01DX001 (ip), vehicle: Klucel (hydroxypropylcellulose) (HPC)): 1 of 6
- survivor count (dose: 400.0 mg/kg/injection, schedule: Q01DX001 (ip), vehicle: Klucel (hydroxypropylcellulose) (HPC)): 0 of 6

Structure (SMILES): CC1(C)N=C(N)N=C(N)N1c1cccc(Cl)c1
- T/C (dose: 20.0 mg/kg/injection, schedule: Q01DX015 (ip), vehicle: saline): 145 % of control
- survivor count (dose: 80.0 mg/kg/injection, schedule: Q01DX015 (ip), vehicle: saline): 4 of 6
- survivor count (dose: 150.0 mg/kg/injection, schedule: Q01DX001 (ip), vehicle: acetone): 2 of 6
- survivor count (dose: 300.0 mg/kg/injection, schedule: Q01DX001 (ip), vehicle: acetone): 0 of 6

Structure (SMILES): Oc1ccccc1C=NCCN=Cc1ccccc1O.[Ni]
- T/C (dose: 200.0 mg/kg/injection, schedule: Q01DX001 (ip), vehicle: other): 133 % of control
- survivor count (dose: 300.0 mg/kg/injection, schedule: Q01DX001 (ip), vehicle: other): 4 of 6
- survivor count (dose: 400.0 mg/kg/injection, schedule: Q01DX001 (ip), vehicle: other): 2 of 4
